This passage reports binding results from patent US20210113649A1.

Assay [1] deals with T1, FLAG-SREBP2 (mature) (UniProt Q12772).
T1 sequence (looked up): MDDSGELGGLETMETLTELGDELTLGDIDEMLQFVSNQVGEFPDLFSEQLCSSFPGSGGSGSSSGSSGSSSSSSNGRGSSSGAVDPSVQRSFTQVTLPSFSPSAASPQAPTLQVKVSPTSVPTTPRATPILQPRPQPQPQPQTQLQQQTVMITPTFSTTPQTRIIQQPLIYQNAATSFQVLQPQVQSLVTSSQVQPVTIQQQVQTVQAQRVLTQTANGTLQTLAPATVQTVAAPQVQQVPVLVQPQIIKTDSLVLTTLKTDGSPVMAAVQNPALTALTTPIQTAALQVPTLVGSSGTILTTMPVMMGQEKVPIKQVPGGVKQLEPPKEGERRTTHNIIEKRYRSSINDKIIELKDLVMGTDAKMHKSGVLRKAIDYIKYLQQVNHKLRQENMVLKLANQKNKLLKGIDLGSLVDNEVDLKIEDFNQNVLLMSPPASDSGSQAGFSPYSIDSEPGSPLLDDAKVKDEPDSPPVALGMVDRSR
Kind of assay: anti-FLAG IP of 293T cells cotransfected with GFP-DAXX constructs and FLAG-SREBP2 (FIG. 6A).

Assay [2] deals with T1, FLAG-SREBP2 (mature). Briefly: FLAG IP of cotransfected 293T cells, immunoblot (FIG. 2D).
Assay [3] has as its target T1, FLAG-SREBP2 (mature). Briefly: FLAG IP of cotransfected 293T cells, immunoblot (FIG. 2B lane 16). A general note: In western blotting, separated proteins are transferred to a membrane and probed.
The target in assay [4] is T1, FLAG-SREBP2 (mature). Briefly: FLAG IP of 293T cells cotransfected with FLAG-SREBP2 (mature) and GFP-DAXX constructs, immunoblot.
Assay [5] has as its target T2, SREBP1 precursor (full-length) (human) (UniProt P36956).
T2 sequence (looked up): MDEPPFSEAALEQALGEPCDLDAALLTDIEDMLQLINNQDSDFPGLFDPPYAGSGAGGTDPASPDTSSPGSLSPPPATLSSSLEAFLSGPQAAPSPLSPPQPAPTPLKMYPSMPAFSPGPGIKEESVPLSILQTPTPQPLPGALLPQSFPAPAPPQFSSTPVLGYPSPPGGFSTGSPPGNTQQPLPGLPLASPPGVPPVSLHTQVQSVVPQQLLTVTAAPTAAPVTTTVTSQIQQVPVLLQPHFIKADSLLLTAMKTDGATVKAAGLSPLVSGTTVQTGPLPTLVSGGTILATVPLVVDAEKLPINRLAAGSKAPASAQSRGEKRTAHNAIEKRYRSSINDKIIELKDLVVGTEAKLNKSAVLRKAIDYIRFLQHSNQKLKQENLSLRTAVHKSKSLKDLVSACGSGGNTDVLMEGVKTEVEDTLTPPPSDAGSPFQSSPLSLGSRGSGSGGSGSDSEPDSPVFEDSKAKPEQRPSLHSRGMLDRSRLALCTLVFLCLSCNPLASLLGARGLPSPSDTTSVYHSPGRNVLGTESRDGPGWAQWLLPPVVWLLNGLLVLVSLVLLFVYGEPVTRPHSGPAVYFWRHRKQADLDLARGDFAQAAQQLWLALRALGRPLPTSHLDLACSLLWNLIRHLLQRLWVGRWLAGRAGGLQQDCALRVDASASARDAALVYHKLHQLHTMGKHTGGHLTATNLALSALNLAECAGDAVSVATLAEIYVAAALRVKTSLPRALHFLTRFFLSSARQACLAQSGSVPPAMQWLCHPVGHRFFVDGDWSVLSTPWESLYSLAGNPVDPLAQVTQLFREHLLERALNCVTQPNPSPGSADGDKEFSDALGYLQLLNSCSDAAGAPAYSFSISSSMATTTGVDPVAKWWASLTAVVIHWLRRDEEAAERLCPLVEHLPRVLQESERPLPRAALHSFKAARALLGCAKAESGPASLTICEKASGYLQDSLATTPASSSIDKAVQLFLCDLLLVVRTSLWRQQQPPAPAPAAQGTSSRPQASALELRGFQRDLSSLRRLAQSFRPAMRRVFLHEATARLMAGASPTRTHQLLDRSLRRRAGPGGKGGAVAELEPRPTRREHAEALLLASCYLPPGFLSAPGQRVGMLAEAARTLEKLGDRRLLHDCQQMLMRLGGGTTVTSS
Kind of assay: IP of MDA-MB-231 cytoplasmic and nuclear extracts with a mouse anti-DAXX mAb, immunoblot (FIG. 13A).

In assay [6] the target is T3, SREBP1 mature form, endogenous (human) (UniProt P36956).
T3 sequence (looked up): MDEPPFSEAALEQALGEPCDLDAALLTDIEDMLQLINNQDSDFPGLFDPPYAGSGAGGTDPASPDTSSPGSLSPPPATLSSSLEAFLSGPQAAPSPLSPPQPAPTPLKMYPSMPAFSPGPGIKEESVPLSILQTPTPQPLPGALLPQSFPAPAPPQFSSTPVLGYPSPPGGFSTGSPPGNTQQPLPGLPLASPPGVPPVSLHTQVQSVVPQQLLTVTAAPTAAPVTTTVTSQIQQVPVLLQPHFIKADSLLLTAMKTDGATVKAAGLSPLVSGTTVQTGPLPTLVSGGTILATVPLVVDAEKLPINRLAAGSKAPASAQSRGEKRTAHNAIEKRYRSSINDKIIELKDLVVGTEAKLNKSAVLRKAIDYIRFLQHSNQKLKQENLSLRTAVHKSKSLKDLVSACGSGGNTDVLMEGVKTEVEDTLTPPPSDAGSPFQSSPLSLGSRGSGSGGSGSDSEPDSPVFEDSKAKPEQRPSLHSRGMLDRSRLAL
The assay is described as above.

Assay [7] deals with T4, mature SREBP1c (Plasmid #26802) (UniProt P36956).
T4 sequence (looked up): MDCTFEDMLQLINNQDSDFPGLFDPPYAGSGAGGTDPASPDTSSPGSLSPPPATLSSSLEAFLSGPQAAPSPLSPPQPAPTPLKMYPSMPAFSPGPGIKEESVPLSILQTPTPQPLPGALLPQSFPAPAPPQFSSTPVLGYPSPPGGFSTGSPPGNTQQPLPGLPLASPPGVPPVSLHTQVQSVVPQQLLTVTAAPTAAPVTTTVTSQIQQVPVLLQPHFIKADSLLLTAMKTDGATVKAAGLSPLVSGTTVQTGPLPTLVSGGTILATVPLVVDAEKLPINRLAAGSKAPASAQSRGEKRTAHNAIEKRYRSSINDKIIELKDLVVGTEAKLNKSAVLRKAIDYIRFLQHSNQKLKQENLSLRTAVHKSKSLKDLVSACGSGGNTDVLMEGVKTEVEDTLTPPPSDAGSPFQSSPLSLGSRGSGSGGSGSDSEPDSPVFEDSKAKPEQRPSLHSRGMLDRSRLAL
Kind of assay: anti-DAXX IP of lysates of 293T cells transfected with mature SREBP1c, immunoblot (FIG. 13B).

For assay [8], the target named is T1, FLAG-SREBP2 (mature). Briefly: anti-DAXX IP of lysates of 293T cells transfected with mature SREBP2, immunoblot (FIG. 13B).
The target in assay [9] is T2, SREBP1 precursor (full-length) (human). Briefly: anti-DAXX IP of MDA-MB-231 cytoplasmic and nuclear extracts and of 293T lysates, immunoblot.
The target in assay [10] is T3, SREBP1 mature form, endogenous (human). The description is as above.
Assay [11] deals with T1, FLAG-SREBP2 (mature). Briefly: FLAG IP of transfected 293T cells, immunoblot (FIG. 2D).

Results are given in words; binding and its absence hold for the method and conditions named. Some binding calls cover weakened binding; strength is not graded here. For part of these data: Where a sequence is shown, tags or fusion partners need not be part of it.

In the case of “GFP-DAXX S668A (from UniProt Q9UER7 1-740)”, the binding entry in the assay with FLAG-SREBP2 (mature) [1] is given as “binds”. With “GFP-DAXX Y124F/Y126F (from UniProt Q9UER7 1-740)”, in the assay with FLAG-SREBP2 (mature) [2], the binding result is on record as “binds”. As for “GFP-DAXX K630A/K631A (from UniProt Q9UER7 1-740)”, the binding result with FLAG-SREBP2 (mature) [2] is listed as “binds”. Turning to “GFP-DAXX construct (aa 1-437) (from UniProt Q9UER7 1-437)”, the binding result in the assay with FLAG-SREBP2 (mature) [3] is reported as “binds”. “GFP-DAXX DHB construct (from UniProt Q9UER7 1-144)”: the binding result in the assay with FLAG-SREBP2 (mature) [4] is listed as “binds”. On to “GFP-DAXX HBD construct (from UniProt Q9UER7 180-384)”, for which, in the assay with FLAG-SREBP2 (mature) [4], the binding entry is listed as “binds”.

Consider GFP-wt DAXX (from UniProt Q9UER7 1-740), for which the binding result with FLAG-SREBP2 (mature) [1] is recorded as “binds”.

Turning to “DAXX (death domain-associated protein), endogenous (from UniProt Q9UER7 1-740)”, the binding result (in [5]; in assay [6]; in [7]; with FLAG-SREBP2 (mature) [8]; in assay [9]; in assay [10]) was “binds” each time. Moreover, in the assay with FLAG-SREBP2 (mature) [11], the binding entry was “binds”. Regarding “GFP-DAXX S561A (from UniProt Q9UER7 1-740)”, the binding result with FLAG-SREBP2 (mature) [2] was “binds”.
